Measurements reported in PubChem BioAssay AID1508597 (Cure First, 2020).

Screen: 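Survival screen with siRNA in ovarian cancer cells derived from patients, with or without rucaparib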 (primary screen)
Cell system: human ovarian carcinoma lines grown from tumours: OCI-P5x (papillary serous) and OCI-C5x (clear cell)
Knock-down reagent: siRNA pool against human genes, 1.25 pmol siRNA per well
Time to read-out: 72 h or 96 h, depending on the cell culture
Treatment: rucaparib 20 µM (about IC30) or vehicle, present until read-out
Rucaparib or vehicle: Vehicle
Cell line: OCI-C5x (clear cell)
Read-out: 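Luminescent ATP-based viability assay read 72 or 96 h after transfection, depending on culture, given as normalised percent viability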
Reading the numbers: viability, normalised: higher = more viable cells remaining
Rule for the call: 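a well counts as a hit if its normalised viability is under 80 percent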
Meaning of the calls: active = viability under 80%; inactive = viability 80% or more
Shown is a random part of the about 2,100 reagents, under one of the conditions tested. 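Calls flag viability under 80% in either arm, not effects specific to rucaparib; the reference for percent is not stated.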 Unmarked entries are inactive. The record does not give: the 100% reference.

| gene | technical replicate | viability, normalised (%) |
| --- | --- | --- |
| SHPK (sedoheptulokinase) | 1 | 52.9 (active) |
| SHPK (sedoheptulokinase) | 2 | 69.5 (active) |
| SHPK (sedoheptulokinase) | 3 | 58.8 (active) |
| COASY (Coenzyme A synthase) | 1 | 122 |
| COASY (Coenzyme A synthase) | 2 | 60.4 (active) |
| COASY (Coenzyme A synthase) | 3 | 57.5 (active) |
| TWF1 (twinfilin actin binding protein 1) | 1 | 50.3 (active) |
| TWF1 (twinfilin actin binding protein 1) | 2 | 43.3 (active) |
| TWF1 (twinfilin actin binding protein 1) | 3 | 53.7 (active) |
| TAF7 (TATA-box binding protein associated factor 7) | 1 | 65.3 (active) |
| TAF7 (TATA-box binding protein associated factor 7) | 2 | 49.5 (active) |
| TAF7 (TATA-box binding protein associated factor 7) | 3 | 43.3 (active) |
| H4C4 (H4 clustered histone 4) | 1 | 46.6 (active) |
| H4C4 (H4 clustered histone 4) | 2 | 50.2 (active) |
| H4C4 (H4 clustered histone 4) | 3 | 39.5 (active) |
| AK3 (adenylate kinase 3) | 1 | 57 (active) |
| AK3 (adenylate kinase 3) | 2 | 43.3 (active) |
| AK3 (adenylate kinase 3) | 3 | 47.5 (active) |
| MAP3K14 (mitogen-activated protein kinase kinase kinase 14) | 1 | 51.2 (active) |
| MAP3K14 (mitogen-activated protein kinase kinase kinase 14) | 2 | 50.8 (active) |
| MAP3K14 (mitogen-activated protein kinase kinase kinase 14) | 3 | 45.7 (active) |
| H1-4 (H1.4 linker histone, cluster member) | 1 | 47.3 (active) |
| H1-4 (H1.4 linker histone, cluster member) | 2 | 50.1 (active) |
| H1-4 (H1.4 linker histone, cluster member) | 3 | 47.7 (active) |
